Patent US6641811B1, “Use of angiotensin II inhibitors to prevent malignancies associated with immunosuppression” (Cornell Research Foundation, Inc., priority 2000, dated 2003)
For at least one compound, name, drawing or mass did not settle the structure.

Tested on: pulmonary metastasis
Test: Tumor progression / development of pulmonary metastasis in experimental animals (Example 2)
Type: in vivo
Conditions: FK506 4 mg/kg

C=CC[C@@H]1/C=C(\C)C[C@H](C)C[C@H](OC)[C@H]2O[C@@](O)(C(=O)C(=O)N3CCCC[C@H]3C(=O)O[C@H](/C(C)=C/[C@@H]3CC[C@@H](O)[C@H](OC)C3)[C@H](C)[C@@H](O)CC1=O)[C@H](C)C[C@@H]2OC [FK506]
Effect on tumor progression: enhanced tumor progression
